In paper PMC9105187:

Assays:
[1] = target: Bcl-2 nineteen kilodalton interacting protein 3 (rat) (rat (endogenous in LV myocardium and adult cardiac myocytes)); assay: co-IP; 250 ug lysate of normal rat adult cardiac myocytes (n = 3) with 5 ug mouse monoclonal BNIP3 antibody (Abcam ab10433), Dynabeads Protein G; western blot
[2] = target: Bcl-2 nineteen kilodalton interacting protein 3 (rat) (rat (endogenous in LV myocardium and adult cardiac myocytes)); assay: co-IP; 250 ug lysate of rat LV myocardium, Sham (n = 3) and pressure overload HFrEF (n = 3), with 5 ug mouse monoclonal BNIP3 antibody (Abcam ab10433), Dynabeads Protein G; western blot

B1: mt-proton/calcium exchanger protein LETM1 (rat) (protein, UniProt Q5XIN6 115-739)
chain: EDSMIEKSLKSLKDKNKKLEEGGPVYSPPAQVVVKKSLGQKILDELKHYYHGFRLLWIDTKIAARMLWRILNGHTLTRRERRQFLRICADLFRLVPFLVFVVVPFMEFLLPVVVKLFPNMLPSTFETQSIKEERLKKELRVKLELAKFLQDTIEEMALKNKAAKGNATKDFSAFFQKIRETGERPSNEEIMRFSKLFEDELTLDNLTRPQLVALCKLLELQSIGTNNFLRFQLTMRLRSIKADDKLISEEGVDSLTVKELQAACRARGMRALGVTEDRLKGQLKQWLDLHLYHEIPTSLLILSRAMYLPDTLSPADQLKSTLQTLPEIVAKEAQVKAAEVEGEQVDNKAKLEATLQEEAAIQQEHLEELKRAAETAKDIQPEVAEATVPGRPGAELQPKMVDVIPPSEILKDTAPVLEGLKGEEITKEEIDILSDACSKLKEQKKSLTKEKEELELLKEDVQDYSEDLQEIKKELSKTGDEKYIEESTASKRLSKRVQQMIGQIDGLITQLETTQQNGKLDPAAASSPTGESVISVDELISAMKQIKHIPEHKLISLTSALDENKDGNINIDDLVKVIDLVNKEDVQISTTQVAEIVATLEKEEKVEEKEKAKEKAEKEAAEVKN
**Q.** B1 was tested. Which binding [1] did it give?
**A.** binds

**Q.** What about the binding [2] of the same binder?
**A.** binds

Results are given in words; binding and its absence hold for the method and conditions named. Binding seen in cells or lysates may run through a third protein. Binding can be weak; no strength is given.
